Test results: paper PMC7819943, “Rice protein-binding microarrays: a tool to detect cis-acting elements near promoter regions in rice”
The other results are listed elsewhere or left out.

Each sequence was assayed against T1, OsSMF1 (Oryza sativa, UniProt Q6ZLB0 1-436) (assay: protein-binding microarray (RPBM); PBS, 2% BSA, 51.3 ng/ul salmon testes DNA, 50 uM zinc acetate, 200 nM TF, 25 C, 1 h; high values mean tight binding). Settings: protein: recombinant; tags: N-terminal polyhistidine and DsRed monomer fusion (pET32a); chain copies: 2; label: CyDye5-dUTP incorporated in the synthesized complementary strand; 3' TTTTT single-stranded linker to array surface; dsDNA, one strand shown.
T1 sequence: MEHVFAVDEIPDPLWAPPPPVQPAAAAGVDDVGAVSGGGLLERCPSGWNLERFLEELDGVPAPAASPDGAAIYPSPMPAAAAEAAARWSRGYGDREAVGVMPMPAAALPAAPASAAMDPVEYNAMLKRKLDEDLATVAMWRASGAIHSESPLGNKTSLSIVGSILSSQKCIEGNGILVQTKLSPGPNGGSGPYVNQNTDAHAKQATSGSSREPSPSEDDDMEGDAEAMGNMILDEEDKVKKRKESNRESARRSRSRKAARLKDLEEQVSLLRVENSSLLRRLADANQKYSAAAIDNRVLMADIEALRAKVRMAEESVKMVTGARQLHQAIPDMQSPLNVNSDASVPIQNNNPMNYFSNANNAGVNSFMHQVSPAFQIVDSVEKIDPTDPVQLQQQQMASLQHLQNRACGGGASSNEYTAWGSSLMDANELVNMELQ
Outline: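 The binding signal is fluorescence intensity per feature, in arbitrary units, read on an Axon 4000B scanner. Polyhistidine- and DsRed-tagged transcription factors (N-terminal fusions) from E. coli BL21-CodonPlus were purified on Ni–NTA and applied at 200 nM for 1 h at 25 °C to a double-stranded, BSA-blocked custom Agilent array in buffer with 50 µM zinc acetate.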
“CAGCAGATGAGTGGCTGGTTAGCTGGACAGGAGTCACAGGCGGAGTCACCTAGTGCAG” was tested, and the binding signal was 3360 fluorescence intensity (a.u.). “GAGGTAACGTGATAACGTCATCATAGCATCATCGCTGACACGGAGTCACCTAGTGCAG” was tested, and the binding signal was 4180 fluorescence intensity (a.u.). In the case of “CGACGACCACCACCTACCCCACCGATGACGCCGTCCGCCACGGAGTCACCTAGTGCAG”, the binding signal is reported as 4700 fluorescence intensity (a.u.). “GCGAGAAATTAAAATTTCCCATTGGTTAAGGCAGACACGACGGAGTCACCTAGTGCAG” was tested, and the binding signal was 3620 fluorescence intensity (a.u.). With “CTCCGTCGCCTTTCCACGTGCCACCATGGATGACGACCATCGGAGTCACCTAGTGCAG” the binding signal was 5510 fluorescence intensity (a.u.). In the case of “ACTATATACAACTAGTCATGCACCCTGCAGGTTGACTTTACGGAGTCACCTAGTGCAG”, the binding signal is reported as 25200 fluorescence intensity (a.u.). “GATAGGGTTTCTCATAGATGATGTGGTAGTTGATTTAGACCGGAGTCACCTAGTGCAG” was tested, and the binding signal was 3940 fluorescence intensity (a.u.). In the case of “GCACGAGTGGATCAGGTCAAATATCCACGTCAGCCAAACCCGGAGTCACCTAGTGCAG”, the binding signal is reported as 18000 fluorescence intensity (a.u.). In the case of “TGATCTGCTCAACTTCAACAAGACCCATGGTGACCATGTCCGGAGTCACCTAGTGCAG”, the binding signal is reported as 3180 fluorescence intensity (a.u.). “TATATATACCACGTCTAGCACTAGTCATCTCGATCTTGGGCGGAGTCACCTAGTGCAG” was tested, and the binding signal was 4840 fluorescence intensity (a.u.). “ACTTAAGTGTTAGTGTATTGTGTATAGTGGTTAGAGCCCGCGGAGTCACCTAGTGCAG” was tested, and the binding signal was 19000 fluorescence intensity (a.u.). With “AGACCAAGAAGTCTACACAATGTCAGTATCTCTATTGTAGCGGAGTCACCTAGTGCAG” the binding signal was 11200 fluorescence intensity (a.u.). With “TGCACCCGGAAAGAATTTCCCGATCGGTCACCCATCCCAACGGAGTCACCTAGTGCAG” the binding signal was 4100 fluorescence intensity (a.u.). In the case of “AATTTTCAAGGAAAAGGATTGCGGTGACGAGGATAATTTGCGGAGTCACCTAGTGCAG”, the binding signal is reported as 3620 fluorescence intensity (a.u.). “ATATATATTTTCTAATGGAGCATTTAGCACATTCGGTTTACGGAGTCACCTAGTGCAG” was tested, and the binding signal was 21500 fluorescence intensity (a.u.). “CCTCTGGCATCCATTATTGAGTTTATTAATCCTCCATCCTCGGAGTCACCTAGTGCAG” was tested, and the binding signal was 26300 fluorescence intensity (a.u.). “TTGTGATGTCCACGTATTCAGGATTAGACCACAGGCCCGGCGGAGTCACCTAGTGCAG” was tested, and the binding signal was 8170 fluorescence intensity (a.u.). For “ACAAACACCACCGACGTTGCCATCGTCACGGTACCAGACTCGGAGTCACCTAGTGCAG”, the binding signal was 4830 fluorescence intensity (a.u.). With “TAAGGTGGTTGGACGGTTAGCATCTTCCTCCTCAAGCTGACGGAGTCACCTAGTGCAG” the binding signal was 3290 fluorescence intensity (a.u.). “AGCCCACTTAACATTAACGAGCCACGCTTACGTTTCTTGGCGGAGTCACCTAGTGCAG” was tested, and the binding signal was 3290 fluorescence intensity (a.u.). With “AAAAGGCCCTCCAGTGGGCCTGGGGCATCTGACGTGTCAACGGAGTCACCTAGTGCAG” the binding signal was 16200 fluorescence intensity (a.u.). With “TTCGCTAATACTTAGATACGTCGTTCGTATTTCAGTCTGTCGGAGTCACCTAGTGCAG” the binding signal was 24200 fluorescence intensity (a.u.). In the case of “TGCACCTAGGTGTACATGTCATTGTGTGTTTGTGGTTGGTCGGAGTCACCTAGTGCAG”, the binding signal is reported as 4630 fluorescence intensity (a.u.). “GCTACTGAGCGTACTACCATGTTCTTAAAGGTGATGCAGACGGAGTCACCTAGTGCAG” was tested, and the binding signal was 3540 fluorescence intensity (a.u.). For “ACGCGCGGCCTAGTTGTGTGTGGGTGTGTGAGGTGAGGGGCGGAGTCACCTAGTGCAG”, the binding signal was 3480 fluorescence intensity (a.u.). For “CGGAGTCTGACTCGGACTCTGCTGGTCAGACTGGCTACATCGGAGTCACCTAGTGCAG”, the binding signal was 5090 fluorescence intensity (a.u.). For “CACATGGGCCCGCTTGACAGCCCTAGCAGAGAGAATCTCACGGAGTCACCTAGTGCAG”, the binding signal was 32000 fluorescence intensity (a.u.). “ATATCAAATTTTCTTCCTGTTAATCAGAATAAGAGGTCAACGGAGTCACCTAGTGCAG” was tested, and the binding signal was 36300 fluorescence intensity (a.u.). “TTTTATACTATATATGAAAGTTGACAGAATGACAGGCTTTCGGAGTCACCTAGTGCAG” was tested, and the binding signal was 3740 fluorescence intensity (a.u.). For “AAGACAAATGAAGATGCGATGACGTGAATACCCGGTAGGACGGAGTCACCTAGTGCAG”, the binding signal was 5020 fluorescence intensity (a.u.). For “CATCTTGTTACAGCTATGTGATACACTTGTACTTGGCAGACGGAGTCACCTAGTGCAG”, the binding signal was 3570 fluorescence intensity (a.u.). In the case of “TTCACATCGTTGCAATAAATAATTATACCACTACTTCATACGGAGTCACCTAGTGCAG”, the binding signal is reported as 24800 fluorescence intensity (a.u.). In the case of “TCCTACGTGACATTTACGTGTCATGTCATATGAATATTCCCGGAGTCACCTAGTGCAG”, the binding signal is reported as 9290 fluorescence intensity (a.u.). For “CTCGGTGTCGTCATCGTGTTTGGATCTCCTATGACGTTTTCGGAGTCACCTAGTGCAG”, the binding signal was 4490 fluorescence intensity (a.u.). With “CCGGTCTGACTGCTGCACGAGCAACCCGACTCGATGGATCCGGAGTCACCTAGTGCAG” the binding signal was 3230 fluorescence intensity (a.u.). “CGCCCGTACGCCACCGATGCGCCCACCGCCGTCGCCCACACGGAGTCACCTAGTGCAG” was tested, and the binding signal was 4140 fluorescence intensity (a.u.). “GAGGAGGAGGAGGAGGAGGAGTCACCTGCGACGCCGTCGCCGGAGTCACCTAGTGCAG” was tested, and the binding signal was 4400 fluorescence intensity (a.u.). With “CTAGAGCTCTACTGTCATCAACTACTCGATCGATCGAACCCGGAGTCACCTAGTGCAG” the binding signal was 4360 fluorescence intensity (a.u.). In the case of “TTATACATTGATGTAACGCGTTAATACTGATAAATATGCACGGAGTCACCTAGTGCAG”, the binding signal is reported as 14300 fluorescence intensity (a.u.). “CAACCCTACCTCGCTTCTCTCACCAGTCACCACCACTTGGCGGAGTCACCTAGTGCAG” was tested, and the binding signal was 4230 fluorescence intensity (a.u.). For “GAGCTCGGCACCAGAGATGAACGCCGTGTGGCGTGGCGACCGGAGTCACCTAGTGCAG”, the binding signal was 3710 fluorescence intensity (a.u.). In the case of “TGCGTTCTGGTTCGTCCACCCTGTGCAAGCTTGTGTCATGCGGAGTCACCTAGTGCAG”, the binding signal is reported as 3330 fluorescence intensity (a.u.).
